No constants are given. Whether binding was seen depends on the method and setting. In cells and extracts the contact can be indirect. A yes stands for co-enrichment or nearness to the bait. Other partners may have been found.
T1: CCCTC-binding insulator (CTCF) (human (endogenous in IMR90)) (UniProt P49711)
T1 sequence: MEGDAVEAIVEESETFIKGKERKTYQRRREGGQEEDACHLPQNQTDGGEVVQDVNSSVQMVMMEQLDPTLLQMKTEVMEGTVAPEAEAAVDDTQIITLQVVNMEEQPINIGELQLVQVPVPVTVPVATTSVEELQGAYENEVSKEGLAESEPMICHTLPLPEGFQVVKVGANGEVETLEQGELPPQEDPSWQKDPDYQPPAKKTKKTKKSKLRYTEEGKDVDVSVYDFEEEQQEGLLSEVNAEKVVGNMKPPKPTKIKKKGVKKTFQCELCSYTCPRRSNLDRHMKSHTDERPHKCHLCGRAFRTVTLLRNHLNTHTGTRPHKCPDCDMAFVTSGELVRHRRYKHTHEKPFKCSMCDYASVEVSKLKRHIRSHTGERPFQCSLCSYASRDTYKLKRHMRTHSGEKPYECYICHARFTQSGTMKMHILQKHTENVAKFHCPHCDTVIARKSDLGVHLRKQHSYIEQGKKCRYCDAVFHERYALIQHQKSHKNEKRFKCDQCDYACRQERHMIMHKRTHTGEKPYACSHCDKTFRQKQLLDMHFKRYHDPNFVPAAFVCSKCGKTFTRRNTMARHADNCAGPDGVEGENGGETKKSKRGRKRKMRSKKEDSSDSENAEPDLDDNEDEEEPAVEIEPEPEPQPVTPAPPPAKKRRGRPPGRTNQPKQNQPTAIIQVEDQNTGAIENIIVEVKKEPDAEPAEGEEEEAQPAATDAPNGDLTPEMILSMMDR

Protein sequences, listed by entry. Tags and fused reporters are not part of them.
UniProt Q14247: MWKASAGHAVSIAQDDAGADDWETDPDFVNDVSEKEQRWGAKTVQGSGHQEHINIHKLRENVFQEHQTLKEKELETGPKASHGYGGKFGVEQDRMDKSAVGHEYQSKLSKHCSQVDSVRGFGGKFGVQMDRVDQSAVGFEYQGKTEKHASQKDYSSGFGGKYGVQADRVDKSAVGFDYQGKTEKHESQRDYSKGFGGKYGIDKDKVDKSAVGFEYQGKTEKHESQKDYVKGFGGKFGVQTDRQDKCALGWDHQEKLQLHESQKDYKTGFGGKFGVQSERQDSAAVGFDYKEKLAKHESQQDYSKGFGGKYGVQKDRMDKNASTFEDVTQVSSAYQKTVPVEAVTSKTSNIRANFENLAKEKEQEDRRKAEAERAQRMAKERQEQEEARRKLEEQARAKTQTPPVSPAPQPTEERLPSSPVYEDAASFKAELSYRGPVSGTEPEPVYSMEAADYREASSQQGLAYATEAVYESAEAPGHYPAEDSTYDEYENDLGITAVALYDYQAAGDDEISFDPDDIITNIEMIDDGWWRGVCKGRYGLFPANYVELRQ
UniProt P78559: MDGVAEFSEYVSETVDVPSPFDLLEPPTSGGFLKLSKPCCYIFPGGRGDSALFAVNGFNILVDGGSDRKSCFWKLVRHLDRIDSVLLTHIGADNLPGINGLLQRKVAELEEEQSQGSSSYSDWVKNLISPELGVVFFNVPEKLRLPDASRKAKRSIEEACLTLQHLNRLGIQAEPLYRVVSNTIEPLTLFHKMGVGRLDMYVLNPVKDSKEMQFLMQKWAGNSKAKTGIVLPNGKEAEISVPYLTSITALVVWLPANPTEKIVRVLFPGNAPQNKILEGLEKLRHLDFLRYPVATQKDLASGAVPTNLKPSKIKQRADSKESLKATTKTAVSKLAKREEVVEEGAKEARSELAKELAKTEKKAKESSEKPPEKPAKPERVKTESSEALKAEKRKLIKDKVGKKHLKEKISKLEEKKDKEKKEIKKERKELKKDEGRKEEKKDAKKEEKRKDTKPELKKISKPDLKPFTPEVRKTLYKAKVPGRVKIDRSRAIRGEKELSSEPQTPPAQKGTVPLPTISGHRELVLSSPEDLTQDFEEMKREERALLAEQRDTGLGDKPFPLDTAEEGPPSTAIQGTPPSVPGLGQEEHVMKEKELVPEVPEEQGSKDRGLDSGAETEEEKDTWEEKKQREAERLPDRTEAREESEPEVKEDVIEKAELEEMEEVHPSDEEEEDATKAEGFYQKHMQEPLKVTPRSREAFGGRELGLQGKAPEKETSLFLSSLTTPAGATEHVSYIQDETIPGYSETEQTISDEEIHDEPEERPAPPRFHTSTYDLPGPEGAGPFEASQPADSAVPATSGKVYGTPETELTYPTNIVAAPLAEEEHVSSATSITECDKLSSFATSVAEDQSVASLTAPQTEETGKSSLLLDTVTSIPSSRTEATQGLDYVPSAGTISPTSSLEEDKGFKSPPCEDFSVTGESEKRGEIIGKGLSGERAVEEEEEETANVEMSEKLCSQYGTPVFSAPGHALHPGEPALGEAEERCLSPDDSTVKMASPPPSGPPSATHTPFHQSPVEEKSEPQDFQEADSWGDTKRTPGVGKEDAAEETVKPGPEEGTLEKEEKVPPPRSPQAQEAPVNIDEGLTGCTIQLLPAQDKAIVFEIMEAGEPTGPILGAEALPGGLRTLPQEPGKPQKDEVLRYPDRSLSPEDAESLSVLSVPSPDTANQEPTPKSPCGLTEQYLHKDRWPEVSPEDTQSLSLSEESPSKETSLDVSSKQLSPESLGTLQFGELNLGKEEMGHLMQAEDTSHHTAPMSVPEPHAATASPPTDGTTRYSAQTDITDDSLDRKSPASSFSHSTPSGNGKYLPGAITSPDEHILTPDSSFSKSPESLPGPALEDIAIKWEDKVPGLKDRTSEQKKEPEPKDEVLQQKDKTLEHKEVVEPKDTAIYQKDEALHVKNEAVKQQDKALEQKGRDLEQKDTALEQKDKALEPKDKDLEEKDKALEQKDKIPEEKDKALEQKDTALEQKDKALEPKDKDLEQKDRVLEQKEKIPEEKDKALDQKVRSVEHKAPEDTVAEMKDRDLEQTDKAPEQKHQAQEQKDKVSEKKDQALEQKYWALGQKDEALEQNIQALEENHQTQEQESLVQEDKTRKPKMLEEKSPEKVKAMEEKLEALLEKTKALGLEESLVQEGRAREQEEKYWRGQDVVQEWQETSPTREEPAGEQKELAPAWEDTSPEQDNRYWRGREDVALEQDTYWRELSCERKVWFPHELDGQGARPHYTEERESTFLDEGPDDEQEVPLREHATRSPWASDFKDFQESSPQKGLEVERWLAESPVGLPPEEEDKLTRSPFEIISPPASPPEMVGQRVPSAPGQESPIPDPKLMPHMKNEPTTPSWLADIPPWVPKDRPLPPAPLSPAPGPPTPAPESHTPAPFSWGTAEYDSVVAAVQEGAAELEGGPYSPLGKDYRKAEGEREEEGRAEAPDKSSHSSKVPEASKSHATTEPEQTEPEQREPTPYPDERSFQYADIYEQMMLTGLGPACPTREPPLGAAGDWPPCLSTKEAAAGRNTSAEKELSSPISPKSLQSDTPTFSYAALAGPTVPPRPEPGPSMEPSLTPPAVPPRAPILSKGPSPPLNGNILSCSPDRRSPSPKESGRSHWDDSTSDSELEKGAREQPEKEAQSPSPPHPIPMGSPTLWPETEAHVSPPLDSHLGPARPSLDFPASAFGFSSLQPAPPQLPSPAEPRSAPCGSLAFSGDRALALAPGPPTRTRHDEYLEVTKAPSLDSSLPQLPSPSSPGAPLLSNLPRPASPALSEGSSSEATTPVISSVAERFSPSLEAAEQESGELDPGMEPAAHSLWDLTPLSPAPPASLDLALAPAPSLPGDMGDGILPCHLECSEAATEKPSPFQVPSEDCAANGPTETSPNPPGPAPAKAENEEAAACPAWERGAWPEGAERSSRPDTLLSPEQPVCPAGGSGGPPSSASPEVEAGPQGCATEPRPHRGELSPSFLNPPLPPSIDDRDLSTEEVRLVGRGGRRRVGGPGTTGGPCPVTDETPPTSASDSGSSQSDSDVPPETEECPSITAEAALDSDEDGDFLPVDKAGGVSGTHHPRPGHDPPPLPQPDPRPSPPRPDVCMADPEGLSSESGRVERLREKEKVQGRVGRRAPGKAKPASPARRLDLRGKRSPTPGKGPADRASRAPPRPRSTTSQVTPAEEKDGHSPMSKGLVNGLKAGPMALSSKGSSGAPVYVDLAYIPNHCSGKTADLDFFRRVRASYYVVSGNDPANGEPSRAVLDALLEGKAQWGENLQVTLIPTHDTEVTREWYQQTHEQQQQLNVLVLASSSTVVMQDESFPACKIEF
UniProt Q9Y597: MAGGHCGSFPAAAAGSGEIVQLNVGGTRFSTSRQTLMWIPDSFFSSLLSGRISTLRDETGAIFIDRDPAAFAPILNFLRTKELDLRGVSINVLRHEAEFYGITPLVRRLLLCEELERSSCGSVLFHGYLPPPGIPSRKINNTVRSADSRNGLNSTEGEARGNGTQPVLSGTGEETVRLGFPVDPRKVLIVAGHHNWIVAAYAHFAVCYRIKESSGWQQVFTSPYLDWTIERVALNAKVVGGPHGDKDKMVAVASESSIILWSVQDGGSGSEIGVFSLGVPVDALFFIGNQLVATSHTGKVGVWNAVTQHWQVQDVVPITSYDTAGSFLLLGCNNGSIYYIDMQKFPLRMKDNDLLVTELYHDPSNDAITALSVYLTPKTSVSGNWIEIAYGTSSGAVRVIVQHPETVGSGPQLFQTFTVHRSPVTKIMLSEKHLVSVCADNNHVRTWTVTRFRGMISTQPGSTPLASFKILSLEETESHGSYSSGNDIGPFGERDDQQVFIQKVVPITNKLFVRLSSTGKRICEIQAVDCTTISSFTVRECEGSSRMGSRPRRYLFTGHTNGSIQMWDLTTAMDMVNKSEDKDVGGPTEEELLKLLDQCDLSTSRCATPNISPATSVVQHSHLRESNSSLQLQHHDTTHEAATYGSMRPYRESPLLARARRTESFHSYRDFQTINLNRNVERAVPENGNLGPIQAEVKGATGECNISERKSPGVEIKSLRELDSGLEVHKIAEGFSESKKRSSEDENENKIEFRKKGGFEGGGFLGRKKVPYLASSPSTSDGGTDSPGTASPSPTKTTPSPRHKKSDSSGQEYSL
UniProt Q99700: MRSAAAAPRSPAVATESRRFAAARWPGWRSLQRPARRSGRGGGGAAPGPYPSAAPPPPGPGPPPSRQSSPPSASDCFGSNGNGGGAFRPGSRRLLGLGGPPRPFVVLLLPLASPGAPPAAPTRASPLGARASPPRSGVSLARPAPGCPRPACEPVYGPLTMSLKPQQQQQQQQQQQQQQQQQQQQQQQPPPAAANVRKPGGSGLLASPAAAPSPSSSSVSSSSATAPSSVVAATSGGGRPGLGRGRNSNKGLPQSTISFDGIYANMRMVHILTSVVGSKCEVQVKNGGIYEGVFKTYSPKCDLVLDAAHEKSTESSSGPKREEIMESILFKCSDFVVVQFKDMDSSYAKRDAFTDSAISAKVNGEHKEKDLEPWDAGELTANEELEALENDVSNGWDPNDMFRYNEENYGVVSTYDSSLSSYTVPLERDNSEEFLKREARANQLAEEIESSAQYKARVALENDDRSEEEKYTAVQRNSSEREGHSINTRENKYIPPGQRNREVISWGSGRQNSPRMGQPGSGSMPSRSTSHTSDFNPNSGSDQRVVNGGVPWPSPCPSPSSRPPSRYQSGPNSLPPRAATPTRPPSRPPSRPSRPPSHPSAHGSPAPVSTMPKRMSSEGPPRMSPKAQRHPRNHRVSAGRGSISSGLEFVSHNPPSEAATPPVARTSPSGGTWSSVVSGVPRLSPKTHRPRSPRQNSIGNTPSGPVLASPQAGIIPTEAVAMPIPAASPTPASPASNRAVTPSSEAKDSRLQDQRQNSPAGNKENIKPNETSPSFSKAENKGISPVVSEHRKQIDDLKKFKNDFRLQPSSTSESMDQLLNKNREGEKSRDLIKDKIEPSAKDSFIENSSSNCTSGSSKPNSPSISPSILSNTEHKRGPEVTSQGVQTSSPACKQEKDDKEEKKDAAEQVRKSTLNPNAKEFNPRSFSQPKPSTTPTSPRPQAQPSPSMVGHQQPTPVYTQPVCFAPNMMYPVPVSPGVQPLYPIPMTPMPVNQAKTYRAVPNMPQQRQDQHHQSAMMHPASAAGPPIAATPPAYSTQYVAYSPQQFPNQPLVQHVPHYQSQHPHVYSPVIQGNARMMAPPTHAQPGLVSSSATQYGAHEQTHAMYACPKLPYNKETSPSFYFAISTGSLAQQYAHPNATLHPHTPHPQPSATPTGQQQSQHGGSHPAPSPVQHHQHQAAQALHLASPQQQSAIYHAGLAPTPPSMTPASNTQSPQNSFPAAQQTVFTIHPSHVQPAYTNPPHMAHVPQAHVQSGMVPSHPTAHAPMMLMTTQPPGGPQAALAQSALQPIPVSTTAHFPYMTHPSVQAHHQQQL
UniProt Q07065: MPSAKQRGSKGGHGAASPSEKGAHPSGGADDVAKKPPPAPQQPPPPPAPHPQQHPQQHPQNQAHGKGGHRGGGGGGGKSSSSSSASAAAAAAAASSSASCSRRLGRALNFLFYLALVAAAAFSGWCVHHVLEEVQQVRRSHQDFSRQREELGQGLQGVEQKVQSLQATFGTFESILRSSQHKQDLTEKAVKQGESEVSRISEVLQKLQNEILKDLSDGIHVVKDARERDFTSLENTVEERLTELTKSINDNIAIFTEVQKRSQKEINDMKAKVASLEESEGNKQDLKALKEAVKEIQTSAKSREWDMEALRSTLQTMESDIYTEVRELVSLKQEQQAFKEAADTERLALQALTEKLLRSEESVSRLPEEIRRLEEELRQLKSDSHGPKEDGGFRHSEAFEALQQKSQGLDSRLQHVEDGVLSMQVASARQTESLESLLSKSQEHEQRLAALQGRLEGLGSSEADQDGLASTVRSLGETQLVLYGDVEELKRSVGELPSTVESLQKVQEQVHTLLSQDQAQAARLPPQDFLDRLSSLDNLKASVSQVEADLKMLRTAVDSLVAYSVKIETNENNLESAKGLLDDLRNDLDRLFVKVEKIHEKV

T2: High mobility group-box 2 (HMGB2) (human (endogenous in IMR90)) (UniProt P26583)
T2 sequence: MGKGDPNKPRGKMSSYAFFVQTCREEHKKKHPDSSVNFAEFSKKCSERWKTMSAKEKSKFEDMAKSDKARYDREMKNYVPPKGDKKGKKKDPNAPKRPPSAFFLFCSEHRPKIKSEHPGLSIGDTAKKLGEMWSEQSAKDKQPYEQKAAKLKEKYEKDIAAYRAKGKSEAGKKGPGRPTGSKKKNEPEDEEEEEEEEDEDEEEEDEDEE

B1: BANF1 (protein, UniProt O75531 1-89)
chain: MTTSQKHRDFVAEPMGEKPVGSLAGIGEVLGKKLEERGFDKAYVVLGQFLVLKKDEDLFREWLKDTCGANAKQSRDCFGCLREWCDAFL
B2: CLCC1 (protein, UniProt Q96S66 19-551)
chain: HDDDWIDPTDMLNYDAASGTMRKSQAKYGISGEKDVSPDLSCADEISECYHKLDSLTYKIDECEKKKREDYESQSNPVFRRYLNKILIEAGKLGLPDENKGDMHYDAEIILKRETLLEIQKFLNGEDWKPGALDDALSDILINFKFHDFETWKWRFEDSFGVDPYNVLMVLLCLLCIVVLVATELWTYVRWYTQLRRVLIISFLFSLGWNWMYLYKLAFAQHQAEVAKMEPLNNVCAKKMDWTGSIWEWFRSSWTYKDDPCQKYYELLLVNPIWLVPPTKALAVTFTTFVTEPLKHIGKGTGEFIKALMKEIPALLHLPVLIIMALAILSFCYGAGKSVHVLRHIGGPESEPPQALRPRDRRRQEEIDYRPDGGAGDADFHYRGQMGPTEQGPYAKTYEGRREILRERDVDLRFQTGNKSPEVLRAFDVPDAEAREHPTVVPSHKSPVLDTKPKETGGILGEGTPKESSTESSQSAKPVSGQDTSGNTEGSPAAEKAQLKSEAAGSPDQGSTYSPARGVAGPRGQDPVSSPCG
B3: A2M (protein, UniProt P01023 24-1474)
chain: SVSGKPQYMVLVPSLLHTETTEKGCVLLSYLNETVTVSASLESVRGNRSLFTDLEAENDVLHCVAFAVPKSSSNEEVMFLTVQVKGPTQEFKKRTTVMVKNEDSLVFVQTDKSIYKPGQTVKFRVVSMDENFHPLNELIPLVYIQDPKGNRIAQWQSFQLEGGLKQFSFPLSSEPFQGSYKVVVQKKSGGRTEHPFTVEEFVLPKFEVQVTVPKIITILEEEMNVSVCGLYTYGKPVPGHVTVSICRKYSDASDCHGEDSQAFCEKFSGQLNSHGCFYQQVKTKVFQLKRKEYEMKLHTEAQIQEEGTVVELTGRQSSEITRTITKLSFVKVDSHFRQGIPFFGQVRLVDGKGVPIPNKVIFIRGNEANYYSNATTDEHGLVQFSINTTNVMGTSLTVRVNYKDRSPCYGYQWVSEEHEEAHHTAYLVFSPSKSFVHLEPMSHELPCGHTQTVQAHYILNGGTLLGLKKLSFYYLIMAKGGIVRTGTHGLLVKQEDMKGHFSISIPVKSDIAPVARLLIYAVLPTGDVIGDSAKYDVENCLANKVDLSFSPSQSLPASHAHLRVTAAPQSVCALRAVDQSVLLMKPDAELSASSVYNLLPEKDLTGFPGPLNDQDNEDCINRHNVYINGITYTPVSSTNEKDMYSFLEDMGLKAFTNSKIRKPKMCPQLQQYEMHGPEGLRVGFYESDVMGRGHARLVHVEEPHTETVRKYFPETWIWDLVVVNSAGVAEVGVTVPDTITEWKAGAFCLSEDAGLGISSTASLRAFQPFFVELTMPYSVIRGEAFTLKATVLNYLPKCIRVSVQLEASPAFLAVPVEKEQAPHCICANGRQTVSWAVTPKSLGNVNFTVSAEALESQELCGTEVPSVPEHGRKDTVIKPLLVEPEGLEKETTFNSLLCPSGGEVSEELSLKLPPNVVEESARASVSVLGDILGSAMQNTQNLLQMPYGCGEQNMVLFAPNIYVLDYLNETQQLTPEIKSKAIGYLNTGYQRQLNYKHYDGSYSTFGERYGRNQGNTWLTAFVLKTFAQARAYIFIDEAHITQALIWLSQRQKDNGCFRSSGSLLNNAIKGGVEDEVTLSAYITIALLEIPLTVTHPVVRNALFCLESAWKTAQEGDHGSHVYTKALLAYAFALAGNQDKRKEVLKSLNEEAVKKDNSVHWERPQKPKAPVGHFYEPQAPSAEVEMTSYVLLAYLTAQPAPTSEDLTSATNIVKWITKQQNAQGGFSSTQDTVVALHALSKYGAATFTRTGKAAQVTIQSSGTFSSKFQVDNNNRLLLQQVSLPELPGEYSMKVTGEGCVYLQTSLKYNILPEKEEFPFALGVQTLPQTCDEPKAHTSFQISLSVSYTGSRSASNMAIVDVKMVSGFIPLKPTVKMLERSNHVSRTEVSSNHVLIYLDKVSNQTLSLFFTVLQDVPVRDLKPAIVKVYDYYETDEFAIAEYNAPCSKDLGNA

What follows are molecules tested against T1, CCCTC-binding insulator (CTCF) (human (endogenous in IMR90)) (assay: affinity purification with mass spectrometry).

Row | Molecule | binding
1 | CTTN (from UniProt Q14247 1-550) | binds
2 | SRRM2 (from UniProt Q9UQ35 1-2752) | binds
3 | MAP1A (from UniProt P78559 1-2803) | binds
4 | KCTD3 (from UniProt Q9Y597 1-815) | binds
5 | ATXN2 (from UniProt Q99700 1-1313) | binds
6 | CKAP4 (from UniProt Q07065 1-602) | binds
7 | SQSTM1 (from UniProt Q13501 1-440) | binds
8 | B1 | binds
9 | B2 | binds
10 | B3 | binds

These molecules were tested against T2, High mobility group-box 2 (HMGB2) (human (endogenous in IMR90)) (assay: affinity purification with mass spectrometry).

Row | Molecule | binding
11 | SRRM2 (from UniProt Q9UQ35 1-2752) | binds

Source: doi:10.1101/2024.07.16.603680
